The whole screen tested about 1,900 compounds, of which about 250 (13%) were called active. Another 4% or so got no clear call; they are omitted.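 The calls were made as follows: active = fitted curve reaches 40% rescue activity at or below the top valid dose, in every test run; inconclusive = test runs disagree, some active and some inactive; inactive = every run misses the threshold or moves the wrong way.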 The entries are a selection whose mix differs from that of the whole data set. Entries with a potency or affinity are not part of this list.
Assay: suppressors of statin myotoxicity in myotubes, dose response, cell-based, C2C12 myotubes, ATP luminescence, cherry pick (AID 624405);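 also: myotubes are challenged with simvastatin at 10 µM to lower ATP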
Settings: C2C12 myotubes + simvastatin, 48 h, scaled: DMSO wells 0, geranylgeraniol wells 100; at 19.5 µM (top of the series) unless noted

| Compound | rescue activity (ATP increase) |
| --- | --- |
| CSc1nsc(/C=C/Nc2ccc(Cl)cc2)c1C#N | inactive: 15.3% |
| Cc1noc(C)c1S(=O)(=O)Nc1ccc2c(c1)C(=O)N([C@@H](C)CO)C[C@@H](C)[C@H](CN(C)Cc1ccc(Cl)c(Cl)c1)OCCCC[C@@H](C)O2 | inactive: 27% |
| C[C@@H]1CCCCO[C@@H](CN(C)CC2CCCCC2)[C@@H](C)CN([C@H](C)CO)C(=O)c2cc(NS(=O)(=O)c3ccccc3)ccc2O1 | inactive: -12.2% |
| CCOC(=O)C1(CCSC)NC(c2ccco2)C2C(=O)N(CC)C(=O)C21 (stereo not given) | inactive: -4.66% |
| CC(=O)c1cccc(NC(=O)CN(c2cccc(F)c2)S(C)(=O)=O)c1 | inactive: -1.17% |
| COc1ccc(C#Cc2cnc3c(c2)C(=O)N([C@H](C)CO)C[C@H](C)[C@H](CN(C)C(=O)Nc2cccc(OC)c2)O3)cc1 | inactive: 30.4% [at 21 µM] |
| COc1ccc(S(=O)(=O)Nc2ccc3c(c2)CC(=O)N([C@@H](C)CO)C[C@@H](C)[C@@H](CN(C)Cc2ccc(Cl)c(Cl)c2)O3)cc1 | inactive: 29% [at 21 µM] |
| CCOC(=O)c1nnc(-c2ccc(C)cc2)nc1Sc1ccc(Cl)cc1 | inactive: 28% |
| O=C(CN1CCN(CCOCCO)CC1)N1c2ccccc2Sc2ccc(Cl)cc21 | inactive: 29.5% |
| COc1ccc(NC(=O)Nc2cccc3c2O[C@@H](CN(C)Cc2ccc(Oc4ccccc4)cc2)[C@@H](C)CN([C@@H](C)CO)C3=O)cc1 | inactive: -0.035% |
| O=C(NCc1ccccc1)Oc1cccc(Cl)c1 | inactive: 26.1% |
| CCOc1nnc(C)c2c(C)n(-c3ccc(Cl)cc3)nc12 | inactive: 44.4% |
| N#CCCN1CCN(Cn2c3ccccc3c3ccccc32)CC1 | inactive: 2.27% |
| COc1ccc(NC(=O)Nc2ccc3c(c2)C(=O)N([C@@H](C)CO)C[C@H](C)[C@@H](CN(C)C(=O)Nc2ccc(C(F)(F)F)cc2)O3)cc1 | inactive: 18.2% |
| COc1ccc(NC(=O)CSc2nnc(-c3ccccc3Cl)n2Cc2ccco2)c(OC)c1 | inactive: 13.5% |
| Cn1nnnc1SCCOc1ccc(C#N)cc1 | inactive: -18.8% |
| Cc1ccc(OCCCn2c(CO)nc3ccccc32)cc1 | inactive: 28.8% |
| Nc1ccc2c3c(cccc13)-c1ccccc1-2 | inactive: 14.6% |
| C[C@@H]1CN([C@H](C)CO)C(=O)c2cc(NC(=O)Cc3ccccc3)ccc2O[C@@H](C)CCCCO[C@@H]1CN(C)Cc1ccc(C(F)(F)F)cc1 | inactive: -20.6% |
| CCOc1cc(C(=O)Nc2cccc3ncccc23)cc(OCC)c1OCC | inactive: -1.37% |
| C[C@H]1CN([C@@H](C)CO)C(=O)c2cc(NC(=O)Cc3ccccc3)ccc2O[C@@H]1CN(C)S(=O)(=O)c1cccs1 | inactive: 10.1% |
| COc1ccc(CN(C)C[C@@H]2Oc3ccc(NS(=O)(=O)c4ccc(C)cc4)cc3CC(=O)N([C@H](C)CO)C[C@H]2C)cc1 | inactive: 16% |
| CC(C(=O)NCC1CCCO1)n1cccc1C(=O)c1ccccc1 (stereo not given) | inactive: 13% |
| COc1ccc(NC(=O)Nc2ccc3c(c2)C(=O)N([C@H](C)CO)C[C@@H](C)[C@H](CN(C)Cc2ccc(C(F)(F)F)cc2)OCCCC[C@@H](C)O3)cc1 | inactive: -23.2% |

| Compound | rescue activity (ATP increase) |
| --- | --- |
| CCc1nnc(NC(=O)Cn2c(=O)oc3ccccc32)s1 | inactive: -2.91% |
| Cc1cc(S(=O)(=O)Nc2nc(CN3CCOCC3)nc3sc4c(c23)CCCC4)ccc1F | inactive: -8.27% |
| Cc1sc2nc(CN(C(=O)c3cccs3)C3CCCC3)[nH]c(=O)c2c1C | inactive: 14.6% |
| Cc1ccc(S(=O)(=O)NCC(=O)OCC(=O)c2cccs2)cc1 | inactive: -36.5% |
| CCN(CC)C(=O)c1scc2c1OCCO2 | inactive: -1.7% |
| C[C@H](CO)N1C[C@H](C)[C@@H](CN(C)S(=O)(=O)c2ccc(Cl)cc2)OCCCC[C@H](C)Oc2ccc(NS(C)(=O)=O)cc2C1=O | inactive: -2.17% |
| CCOC(=O)c1[nH]c2ccc(Br)cc2c1NC(=O)CCN1CCN(C(=O)OCC)CC1 | inactive: 45.9% |
| CCCCOC(=O)Cn1c(=O)c2c(nc3n2CCCCN3c2ccc(C)cc2)n(C)c1=O | inactive: -4.89% |
| COc1ccc(NC(=O)N(C)C[C@@H]2Oc3c(NC(=O)c4ccncc4)cccc3C(=O)N([C@H](C)CO)C[C@@H]2C)cc1 | inactive: 12.4% |
| Cc1cccc(OCCCCc2c(C)n[nH]c2C)c1C | inactive: 33.2% |
| CCC(OC(=O)c1cccs1)C(=O)NCc1ccco1 (stereo not given) | inactive: 9.03% |
| O=C(COc1cccc(Oc2ccccc2)c1)Nc1ncccn1 | inactive: 3.89% |
| CC1CCCCN1S(=O)(=O)c1ccc(NC(=O)c2ccco2)cc1 (stereo not given) | inactive: -51% |
| C[C@H]1CN([C@@H](C)CO)C(=O)Cc2cc(NC(=O)CCCCCC(=O)Nc3ccccc3N)ccc2O[C@@H]1CN(C)Cc1ccc(-c2ccccc2)cc1 | inactive: 24.2% |
| C[C@@H]1CN([C@@H](C)CO)C(=O)Cc2cc(NC(=O)Nc3cccc4ccccc34)ccc2O[C@@H]1CN(C)S(=O)(=O)c1ccc(Cl)cc1 | inactive: 8.86% |
| C[C@@H]1CCCCO[C@@H](CN(C)Cc2ccc(Cl)c(Cl)c2)[C@H](C)CN([C@@H](C)CO)C(=O)c2cc(NS(C)(=O)=O)ccc2O1 | inactive: 8.52% |
| C[C@@H]1CN([C@H](C)CO)C(=O)c2cc(NC(=O)Nc3cccc4ccccc34)ccc2O[C@@H](C)CCCCO[C@@H]1CN(C)C(=O)NC1CCCCC1 | inactive: 22% [at 21 µM] |
| CCOC(=O)c1c(C)sc2c1N(C(=O)CN(CC)CC)c1cc(Cl)ccc1S2 | inactive: 13.2% |
| Nc1nnc(-c2ccccc2)c(-c2ccccc2)n1 | inactive: 15.7% |
| COc1ccc(NC(=O)Nc2ccc3c(c2)C(=O)N([C@@H](C)CO)C[C@@H](C)[C@H](CN(C)Cc2ccc(C(F)(F)F)cc2)OCCCC[C@@H](C)O3)cc1 | inactive: -9.75% |
| COc1ccc(OCCNS(=O)(=O)c2ccc3oc4ccccc4c3c2)cc1 | inactive: 13.6% |
| COc1ccc(NC(=O)Nc2ccc3c(c2)C(=O)N([C@@H](C)CO)C[C@H](C)[C@H](CN(C)C(=O)C2CCCCC2)OCCCC[C@H](C)O3)cc1 | inactive: 12.4% |
| CC(C)(C)n1nnnc1C(c1cccs1)N(Cc1ccccc1)Cc1cccnc1 (stereo not given) | inactive: -10.9% |
| NC(=O)COC(=O)C(Cc1ccccc1)NS(=O)(=O)c1ccccc1F (stereo not given) | inactive: -32.6% |

Of the compounds above, these contain a Cl atom:

| Compound | rescue activity (ATP increase) |
| --- | --- |
| CSc1nsc(/C=C/Nc2ccc(Cl)cc2)c1C#N | inactive: 15.3% |
| Cc1noc(C)c1S(=O)(=O)Nc1ccc2c(c1)C(=O)N([C@@H](C)CO)C[C@@H](C)[C@H](CN(C)Cc1ccc(Cl)c(Cl)c1)OCCCC[C@@H](C)O2 | inactive: 27% |
| COc1ccc(S(=O)(=O)Nc2ccc3c(c2)CC(=O)N([C@@H](C)CO)C[C@@H](C)[C@@H](CN(C)Cc2ccc(Cl)c(Cl)c2)O3)cc1 | inactive: 29% [at 21 µM] |
| CCOC(=O)c1nnc(-c2ccc(C)cc2)nc1Sc1ccc(Cl)cc1 | inactive: 28% |
| O=C(CN1CCN(CCOCCO)CC1)N1c2ccccc2Sc2ccc(Cl)cc21 | inactive: 29.5% |
| O=C(NCc1ccccc1)Oc1cccc(Cl)c1 | inactive: 26.1% |
| CCOc1nnc(C)c2c(C)n(-c3ccc(Cl)cc3)nc12 | inactive: 44.4% |
| COc1ccc(NC(=O)CSc2nnc(-c3ccccc3Cl)n2Cc2ccco2)c(OC)c1 | inactive: 13.5% |
| C[C@H](CO)N1C[C@H](C)[C@@H](CN(C)S(=O)(=O)c2ccc(Cl)cc2)OCCCC[C@H](C)Oc2ccc(NS(C)(=O)=O)cc2C1=O | inactive: -2.17% |
| C[C@@H]1CN([C@@H](C)CO)C(=O)Cc2cc(NC(=O)Nc3cccc4ccccc34)ccc2O[C@@H]1CN(C)S(=O)(=O)c1ccc(Cl)cc1 | inactive: 8.86% |
| C[C@@H]1CCCCO[C@@H](CN(C)Cc2ccc(Cl)c(Cl)c2)[C@H](C)CN([C@@H](C)CO)C(=O)c2cc(NS(C)(=O)=O)ccc2O1 | inactive: 8.52% |
| CCOC(=O)c1c(C)sc2c1N(C(=O)CN(CC)CC)c1cc(Cl)ccc1S2 | inactive: 13.2% |

The list continues.

| Compound | rescue activity (ATP increase) |
| --- | --- |
| COc1ccc(/C=N/NS(=O)(=O)c2ccccc2)cc1OC(=O)c1ccc(C)cc1 | inactive: -7.16% |
| C[C@H]1CN([C@@H](C)CO)C(=O)Cc2cc(NC(=O)CCCCCC(=O)Nc3ccccc3N)ccc2O[C@@H]1CN(C)Cc1ccc(Oc2ccccc2)cc1 | inactive: 37.8% [at 21 µM] |
| Cc1ccc(S(=O)(=O)Nc2ccc3c(c2)CC(=O)N([C@H](C)CO)C[C@H](C)[C@H](CN(C)S(=O)(=O)c2ccc(C)cc2)O3)cc1 | inactive: 19.9% |
| CC(=O)N1C=CN(C(C)=O)C(c2cn(C)c3ccccc23)C1c1cn(C)c2ccccc12 (stereo not given) | inactive: 25.1% |
| CCOc1ccc(-c2nc(CSCC(=O)NCc3ccco3)c(C)o2)cc1 | inactive: 0.229% |
| COc1ccc(C#Cc2cnc3c(c2)C(=O)N([C@@H](C)CO)C[C@@H](C)[C@@H](CN(C)C(=O)Nc2cccc(OC)c2)O3)cc1 | inactive: 23.6% |
| C[C@H]1CN([C@@H](C)CO)C(=O)Cc2cc(NC(=O)CCCCCC(=O)Nc3ccccc3N)ccc2O[C@@H]1CN(C)Cc1ccc(Cl)c(Cl)c1 | inactive: 37.1% [at 18 µM] |
| COc1ccc(C2CC(c3c(O)cc(C)oc3=O)=NCCS2)c(OC)c1 (stereo not given) | inactive: -139% |
| COCCNC(=O)CSc1nc2ccccc2c2nc(C)nn12 | inactive: -16.7% |
| COc1ccc(S(=O)(=O)N2CCN(Cc3cccc(Cl)c3)CC2)cc1 | inactive: 21.4% |
| C[C@@H]1CN([C@H](C)CO)C(=O)Cc2cc(NS(=O)(=O)c3ccc(F)cc3)ccc2O[C@H]1CN(C)Cc1ccc2c(c1)OCO2 | inactive: 4.84% [at 10 µM] |
| C[C@@H]1CN([C@H](C)CO)C(=O)c2cccc(NC(=O)Nc3ccccc3)c2O[C@@H]1CN(C)S(=O)(=O)c1ccccc1 | inactive: 26.7% |
| Cc1c(C(=O)N2CCc3ccccc32)oc2c1C(=O)CC(C)(C)C2 | inactive: -12.6% |
| CCc1cccc(NC(=O)c2ccc(CNc3c(N4CCCC4)c(=O)c3=O)cc2)c1 | inactive: 17.3% |
| COc1ccc(C#Cc2cnc3c(c2)C(=O)N([C@@H](C)CO)C[C@H](C)[C@@H](CN(C)C(=O)Nc2cccc(OC)c2)O3)cc1 | inactive: 20.3% |
| CN(C)c1ccc(C2C3C(=O)N(c4ccc(C(=O)O)cc4)C(=O)C3ON2c2ccccc2)cc1 (stereo not given) | inactive: -24.5% |
| C[C@H](CO)N1C[C@H](C)[C@@H](CN(C)Cc2ccc(Cl)c(Cl)c2)Oc2ccc(NC(=O)Cn3cnnn3)cc2CC1=O | inactive: 23.7% |
| O=C1NC(=NCc2ccccc2)NC1(c1ccccc1)c1ccccc1 | inactive: -1.64% |
| C[C@H]1CN([C@@H](C)CO)C(=O)Cc2cc(NC(=O)Nc3ccc(C(F)(F)F)cc3)ccc2O[C@H]1CN(C)C(=O)Nc1ccc(F)cc1 | inactive: -7.06% |
| O=C(CSCCO)N1CCc2ccccc21 | inactive: -18.5% |
| C[C@H]1CN([C@@H](C)CO)C(=O)c2cccc(NC(=O)Nc3cccc4ccccc34)c2O[C@H]1CN(C)Cc1ccc(C(F)(F)F)cc1 | inactive: 34.5% |
| O=C(Nc1ccc(Br)cc1)C1CCCN1S(=O)(=O)c1cccs1 (stereo not given) | inactive: 22.4% |

A portion of the results above, for reference:

| Compound | rescue activity (ATP increase) |
| --- | --- |
| CC(=O)c1cccc(NC(=O)CN(c2cccc(F)c2)S(C)(=O)=O)c1 | inactive: -1.17% |
| COc1ccc(C#Cc2cnc3c(c2)C(=O)N([C@H](C)CO)C[C@H](C)[C@H](CN(C)C(=O)Nc2cccc(OC)c2)O3)cc1 | inactive: 30.4% [at 21 µM] |

— PubChem BioAssay AID624405 (Broad Institute, 2012)
